Laboratory results taken from publication PMC7819943, “Rice protein-binding microarrays: a tool to detect cis-acting elements near promoter regions in rice”.
Some of the results follow.

The chains behind the UniProt entries cited, without tags or fusion partners.
UniProt Q0JBA9, entry or part of it: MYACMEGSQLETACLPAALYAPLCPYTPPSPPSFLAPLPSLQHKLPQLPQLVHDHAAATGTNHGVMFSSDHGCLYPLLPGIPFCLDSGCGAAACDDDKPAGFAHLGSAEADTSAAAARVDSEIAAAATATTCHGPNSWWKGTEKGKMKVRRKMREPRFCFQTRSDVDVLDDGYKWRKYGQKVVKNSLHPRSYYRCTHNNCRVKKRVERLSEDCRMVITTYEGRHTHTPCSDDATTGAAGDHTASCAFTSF

The sequences below were run against OsWRKY34 (Oryza sativa, UniProt Q0JBA9 1-250) (assay: protein-binding microarray (RPBM); PBS, 2% BSA, 51.3 ng/ul salmon testes DNA, 50 uM zinc acetate, 200 nM TF, 25 C, 1 h; high values mean tight binding). Conditions: protein: recombinant; tags: N-terminal polyhistidine and DsRed monomer fusion (pET32a); label: CyDye5-dUTP incorporated in the synthesized complementary strand; 3' TTTTT single-stranded linker to array surface; dsDNA, one strand shown.
Summary of the method: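 The binding signal for each feature is its fluorescence intensity in arbitrary units. An Axon 4000B scanner was used to read a custom Agilent array that had been made double-stranded with Cy5-dUTP primer extension, blocked with 2% BSA, incubated at 25 °C for 1 h with 200 nM protein in PBS, 2% BSA, salmon testes DNA and 50 µM zinc acetate, and washed. The protein was an N-terminal polyhistidine–DsRed transcription factor fusion from E. coli BL21-CodonPlus, purified on Ni–NTA.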
“TTTTGATCGTCCGTCTTATTTAAATTTTTTTTGAAAAAATCGGAGTCACCTAGTGCAG” was tested, and the binding signal was 8170 fluorescence intensity (a.u.). With “TTCCAATCACATTCTTAGTCAACACCATCCATGCTGTCGACGGAGTCACCTAGTGCAG” the binding signal was 8570 fluorescence intensity (a.u.). With “TTCTAATTTCTATTGCTGTTTCTTAGACATGATATTTTTACGGAGTCACCTAGTGCAG” the binding signal was 8710 fluorescence intensity (a.u.). With “TTTAAATTGTTACTATCTCGCAGTTCAGTAAAATTTTCATCGGAGTCACCTAGTGCAG” the binding signal was 8420 fluorescence intensity (a.u.). With “TAGTAGTTTGATCAATTTGCATCTCAGTGGTACCAAGTTCCGGAGTCACCTAGTGCAG” the binding signal was 8340 fluorescence intensity (a.u.). For “GGTTTGCCGTCGTCGGCGTCGGCCGCTGCCTCGCGCGCGCCGGAGTCACCTAGTGCAG”, the binding signal was 9230 fluorescence intensity (a.u.). For “TTCGTTCCATCTCACCTCATCCTATTCTTGTAACTAAACACGGAGTCACCTAGTGCAG”, the binding signal was 9060 fluorescence intensity (a.u.). With “GGCCTACCTGTTGCAGATTCAAGTGTCGTTGCGCTTATAACGGAGTCACCTAGTGCAG” the binding signal was 8860 fluorescence intensity (a.u.). With “CGCGCCGCCGCCGATCGCCTCTGCTCTCAACGCACCCAAGCGGAGTCACCTAGTGCAG” the binding signal was 8120 fluorescence intensity (a.u.). In the case of “CCTCCGCCACACCCGCGCCACCCGCTCCCTTCGCCGGCTCCGGAGTCACCTAGTGCAG”, the binding signal is reported as 10500 fluorescence intensity (a.u.). For “GAGCGTTATCTCGCGTGGCCAGCTCGGATTTGCGCATGCGCGGAGTCACCTAGTGCAG”, the binding signal was 8300 fluorescence intensity (a.u.). For “CCGCTTCTTCTTCCTTGCTGCTGTTCCTAAGGCACTTCTCCGGAGTCACCTAGTGCAG”, the binding signal was 8880 fluorescence intensity (a.u.). “CACGCGCCATGCATGCACCACTGCCACCACTATCAACCACCGGAGTCACCTAGTGCAG” was tested, and the binding signal was 8180 fluorescence intensity (a.u.). For “TTCTTGTTTTCGTGGATCATCATCAACCTCAATAGAAACGCGGAGTCACCTAGTGCAG”, the binding signal was 8410 fluorescence intensity (a.u.). With “CCGAGGCAATTTTTCCGACCTATTGTGTTGCTTTCCTCTCCGGAGTCACCTAGTGCAG” the binding signal was 8360 fluorescence intensity (a.u.). In the case of “CTCCTGCTCTAGTTCTTGTTTGATTAATTTGGTCAAATCTCGGAGTCACCTAGTGCAG”, the binding signal is reported as 9140 fluorescence intensity (a.u.). With “TTGTGGTGATGAGAAGACTATGTCATTTGTTATTCTTCTACGGAGTCACCTAGTGCAG” the binding signal was 9510 fluorescence intensity (a.u.). “CGCCGCTGTGCCCCTGTGCTCACCTCTCGTCGCGGTCGCCCGGAGTCACCTAGTGCAG” was tested, and the binding signal was 8350 fluorescence intensity (a.u.). In the case of “GTAGTATTCTCGTTTTATTTTTCTTGTGGGTATAGCATTCCGGAGTCACCTAGTGCAG”, the binding signal is reported as 13700 fluorescence intensity (a.u.). With “CTCCTCCACCTCCTCTGCTTCTTAATTCAATCCTATCTCACGGAGTCACCTAGTGCAG” the binding signal was 8040 fluorescence intensity (a.u.). For “CTTTTTATTACCGGTGTTTCGCTTTGGACCACCCTTCAACCGGAGTCACCTAGTGCAG”, the binding signal was 9170 fluorescence intensity (a.u.). With “GTCGTCCGTCCTCGCTCCATTCGCTGTTGGGGCGCGCCAACGGAGTCACCTAGTGCAG” the binding signal was 9470 fluorescence intensity (a.u.). With “GTGGGTATGGGTAAGATTCGGTGAGGGCTGGGCTACCATGCGGAGTCACCTAGTGCAG” the binding signal was 8200 fluorescence intensity (a.u.). “GCTCCTATCTCGATGGCTTCTGGCTTCTGCCCTACTTTTCCGGAGTCACCTAGTGCAG” was tested, and the binding signal was 11000 fluorescence intensity (a.u.). With “TCAAAGGTTGGTTTGATTTGTTGCTATTTGTTGGTTTGATCGGAGTCACCTAGTGCAG” the binding signal was 8630 fluorescence intensity (a.u.). For “GGCATCCACGTCCGATTCATCCTCCCGCCAACTTGGAACCCGGAGTCACCTAGTGCAG”, the binding signal was 11100 fluorescence intensity (a.u.). In the case of “GAATCTTCTTTTACCCTCTTTTGCAAAGTCGATTTTTTCTCGGAGTCACCTAGTGCAG”, the binding signal is reported as 8070 fluorescence intensity (a.u.). “ATATAATTCCCGTCCGTTTCCGTATTGTTTTCACCCCTATCGGAGTCACCTAGTGCAG” was tested, and the binding signal was 8750 fluorescence intensity (a.u.). For “ACACAAGTGCTCAGTACTAGCCTTGAATTGTGCTCTTTCTCGGAGTCACCTAGTGCAG”, the binding signal was 9060 fluorescence intensity (a.u.). In the case of “TTACCTCAAACTCGCGTATACCCTGGCACCAATGATTCTCCGGAGTCACCTAGTGCAG”, the binding signal is reported as 9760 fluorescence intensity (a.u.). In the case of “GATTAAAATAGACTTCACCTGTTGCAACGCACGGGCATTTCGGAGTCACCTAGTGCAG”, the binding signal is reported as 8580 fluorescence intensity (a.u.). In the case of “CCTCCGCCTCGCTTCTTCATCTCCTCTCCTTTAATTCGGCCGGAGTCACCTAGTGCAG”, the binding signal is reported as 8580 fluorescence intensity (a.u.). For “GGCCCTTTATGTGGGTGTGCGTCGCGATCCTCTGCTTCTTCGGAGTCACCTAGTGCAG”, the binding signal was 8570 fluorescence intensity (a.u.). With “TTTTCCTCTTCTTCCTCATGCCGCTCTCTTGCCGTTACTCCGGAGTCACCTAGTGCAG” the binding signal was 10600 fluorescence intensity (a.u.). With “ATTTTTACTTATACCACCTCATGATTTTCTTCCTAAATTTCGGAGTCACCTAGTGCAG” the binding signal was 8710 fluorescence intensity (a.u.). With “CCTCCTCGTCCCCGTTATCAGCCTCCTGGATATCACTCGTCGGAGTCACCTAGTGCAG” the binding signal was 8660 fluorescence intensity (a.u.). In the case of “TGTTGTTCTTCGTGTTGATTTCTTCCTCTGCGAATTGAATCGGAGTCACCTAGTGCAG”, the binding signal is reported as 10100 fluorescence intensity (a.u.). In the case of “TTGGAATAGGTTTTATCATTAGTTTATGTTTAATACTTCTCGGAGTCACCTAGTGCAG”, the binding signal is reported as 8390 fluorescence intensity (a.u.). For “TCGTGGTTTTTATGTTGGTGTGTCCCTCAATCAATTTGGTCGGAGTCACCTAGTGCAG”, the binding signal was 8460 fluorescence intensity (a.u.). “TTCTATATGTCTGTGCATAGCATTCTTGCAATTCAACTATCGGAGTCACCTAGTGCAG” was tested, and the binding signal was 8080 fluorescence intensity (a.u.). In the case of “ACAACAACAGACCGCAATTCCCGGGCCACCCCAGTCAACGCGGAGTCACCTAGTGCAG”, the binding signal is reported as 9620 fluorescence intensity (a.u.). In the case of “GGATGGGAAATTTCGGCCTCGCTTTCCTTGTTTGTTCGGCCGGAGTCACCTAGTGCAG”, the binding signal is reported as 8480 fluorescence intensity (a.u.).
